{"source": "PubChem BioAssay AID652243 (Drosophila RNAi Screening Center, 2013)", "screen": "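Fly regulators of androgen-dependent reporter output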 (primary screen)", "cell system": "Drosophila S2R+ cells", "reagents": "long dsRNA against Drosophila genes", "duration": "72 h (48 h, then 24 h hormone)", "challenge": "synthetic androgen R1881 at 10 nM for 24 h", "read-out": "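Firefly light from an androgen-responsive reporter and Renilla control light per well, raw and unnormalised, for each of two replicates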", "scale": "firefly reporter light: higher = more light from androgen-responsive reporter; Renilla control light: higher = more constitutive control signal (cell number, transfection)", "hit rule": "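Across duplicate plates, a knock-down whose log firefly/Renilla ratio shifted a set fold down or up from the GFP/LacZ control mean was a hit; the downward cut appears as both 1.5 and 3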", "calls": "active = hit: reporter lowered or raised; inactive = no hit", "note": "The deposit covers about 24,000 reagents; this is an unselected part of those with a known target gene and a result. Of all reagents, 246 (1%) are marked active. 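Plates not normalised; calls are printed but the firefly/Renilla ratio behind them is not deposited; fold cut for lowering reported inconsistently.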 Raw values vary from plate to plate and are shown uncorrected. A plus sign joins genes that one reagent is predicted to hit. Not stated in the record: the amount of reagent."}
{"Target gene":"CG6051","dsRNA":"DRSC15956","firefly reporter light, replicate 1":62512,"firefly reporter light, replicate 2":1.14e5,"Renilla control light, replicate 1":6.98e5,"Renilla control light, replicate 2":8.10e5,"activity call":"inactive"}
{"Target gene":"CG6051","dsRNA":"DRSC25123","firefly reporter light, replicate 1":8.59e5,"firefly reporter light, replicate 2":5.95e5,"Renilla control light, replicate 1":1.15e6,"Renilla control light, replicate 2":1.06e6,"activity call":"inactive"}
{"Target gene":"CG8908","dsRNA":"DRSC07297","firefly reporter light, replicate 1":80138,"firefly reporter light, replicate 2":72346,"Renilla control light, replicate 1":9.95e5,"Renilla control light, replicate 2":9.94e5,"activity call":"inactive"}
{"Target gene":"Vps33B","dsRNA":"DRSC15722","firefly reporter light, replicate 1":93786,"firefly reporter light, replicate 2":85333,"Renilla control light, replicate 1":7.17e5,"Renilla control light, replicate 2":6.21e5,"activity call":"inactive"}
{"Target gene":"CR41243","dsRNA":"DRSC37741","firefly reporter light, replicate 1":6.94e5,"firefly reporter light, replicate 2":6.15e5,"Renilla control light, replicate 1":1.85e6,"Renilla control light, replicate 2":1.66e6,"activity call":"inactive"}
{"Target gene":"asRNA:CR43426 + CG32462","dsRNA":"DRSC29458","firefly reporter light, replicate 1":6.28e5,"firefly reporter light, replicate 2":6.77e5,"Renilla control light, replicate 1":1.21e6,"Renilla control light, replicate 2":1.21e6,"activity call":"inactive"}
{"Target gene":"CG5246","dsRNA":"DRSC15751","firefly reporter light, replicate 1":1.28e5,"firefly reporter light, replicate 2":1.57e5,"Renilla control light, replicate 1":2.15e6,"Renilla control light, replicate 2":2.43e6,"activity call":"inactive"}
{"Target gene":"CG5246","dsRNA":"DRSC30005","firefly reporter light, replicate 1":5.04e5,"firefly reporter light, replicate 2":5.17e5,"Renilla control light, replicate 1":1.47e6,"Renilla control light, replicate 2":1.35e6,"activity call":"inactive"}
{"Target gene":"oc","dsRNA":"DRSC25006","firefly reporter light, replicate 1":3.27e5,"firefly reporter light, replicate 2":3.31e5,"Renilla control light, replicate 1":3.79e5,"Renilla control light, replicate 2":4.73e5,"activity call":"inactive"}
{"Target gene":"ddbt","dsRNA":"DRSC38857","firefly reporter light, replicate 1":8.29e5,"firefly reporter light, replicate 2":7.60e5,"Renilla control light, replicate 1":2.33e6,"Renilla control light, replicate 2":2.03e6,"activity call":"inactive"}
{"Target gene":"CG32260","dsRNA":"DRSC08084","firefly reporter light, replicate 1":1.40e5,"firefly reporter light, replicate 2":2.02e5,"Renilla control light, replicate 1":4.14e5,"Renilla control light, replicate 2":4.09e5,"activity call":"inactive"}
{"Target gene":"CG32260","dsRNA":"DRSC24480","firefly reporter light, replicate 1":7.67e5,"firefly reporter light, replicate 2":8.45e5,"Renilla control light, replicate 1":9.05e5,"Renilla control light, replicate 2":9.71e5,"activity call":"inactive"}
{"Target gene":"tay","dsRNA":"DRSC20142","firefly reporter light, replicate 1":1.60e5,"firefly reporter light, replicate 2":1.02e5,"Renilla control light, replicate 1":7.92e5,"Renilla control light, replicate 2":6.10e5,"activity call":"inactive"}

A stretch of the results above, for reference:
{"Target gene":"ddbt","dsRNA":"DRSC38857","firefly reporter light, replicate 1":8.29e5,"firefly reporter light, replicate 2":7.60e5,"Renilla control light, replicate 1":2.33e6,"Renilla control light, replicate 2":2.03e6,"activity call":"inactive"}
{"Target gene":"CG32260","dsRNA":"DRSC08084","firefly reporter light, replicate 1":1.40e5,"firefly reporter light, replicate 2":2.02e5,"Renilla control light, replicate 1":4.14e5,"Renilla control light, replicate 2":4.09e5,"activity call":"inactive"}
{"Target gene":"CG32260","dsRNA":"DRSC24480","firefly reporter light, replicate 1":7.67e5,"firefly reporter light, replicate 2":8.45e5,"Renilla control light, replicate 1":9.05e5,"Renilla control light, replicate 2":9.71e5,"activity call":"inactive"}

Further records follow:
{"Target gene":"CG34377","dsRNA":"DRSC13559","firefly reporter light, replicate 1":7.13e5,"firefly reporter light, replicate 2":7.30e5,"Renilla control light, replicate 1":1.56e6,"Renilla control light, replicate 2":1.21e6,"activity call":"inactive"}
{"Target gene":"CG34377","dsRNA":"DRSC14708","firefly reporter light, replicate 1":2.56e5,"firefly reporter light, replicate 2":3.19e5,"Renilla control light, replicate 1":3.47e6,"Renilla control light, replicate 2":4.17e6,"activity call":"inactive"}
{"Target gene":"CG34377","dsRNA":"DRSC14709","firefly reporter light, replicate 1":2.15e5,"firefly reporter light, replicate 2":3.14e5,"Renilla control light, replicate 1":3.54e6,"Renilla control light, replicate 2":3.72e6,"activity call":"inactive"}
{"Target gene":"CG34377","dsRNA":"DRSC14710","firefly reporter light, replicate 1":3.17e5,"firefly reporter light, replicate 2":3.53e5,"Renilla control light, replicate 1":3.56e6,"Renilla control light, replicate 2":3.99e6,"activity call":"inactive"}
{"Target gene":"CG34377","dsRNA":"DRSC14711","firefly reporter light, replicate 1":2.73e5,"firefly reporter light, replicate 2":2.92e5,"Renilla control light, replicate 1":3.25e6,"Renilla control light, replicate 2":3.52e6,"activity call":"inactive"}
{"Target gene":"CG18265","dsRNA":"DRSC10310","firefly reporter light, replicate 1":43058,"firefly reporter light, replicate 2":51397,"Renilla control light, replicate 1":6.70e5,"Renilla control light, replicate 2":1.37e6,"activity call":"inactive"}
{"Target gene":"CG31957","dsRNA":"DRSC00207","firefly reporter light, replicate 1":2.26e5,"firefly reporter light, replicate 2":82571,"Renilla control light, replicate 1":4.80e5,"Renilla control light, replicate 2":2.60e5,"activity call":"inactive"}
{"Target gene":"CG33337","dsRNA":"DRSC13632","firefly reporter light, replicate 1":4.94e5,"firefly reporter light, replicate 2":4.55e5,"Renilla control light, replicate 1":3.01e6,"Renilla control light, replicate 2":2.14e6,"activity call":"inactive"}
{"Target gene":"CG33337","dsRNA":"DRSC27000","firefly reporter light, replicate 1":3.80e5,"firefly reporter light, replicate 2":2.67e5,"Renilla control light, replicate 1":1.12e6,"Renilla control light, replicate 2":5.93e5,"activity call":"inactive"}
